Data from patent US20030040612A1 (MOUNT SINAI SCHOOL OF MEDICINE, published 2003).
These are yes or no findings as the source states them, for the method shown. Some entries that bind do so weakly or less than the wild type.

Columns and labels:
[1] = molecular target: T1, SNT-1 PTB domain (residues 11-140 of SEQ ID NO:1) (human) (UniProt Q8WU20); assay: NMR structure of the 1:1 complex
T1 sequence: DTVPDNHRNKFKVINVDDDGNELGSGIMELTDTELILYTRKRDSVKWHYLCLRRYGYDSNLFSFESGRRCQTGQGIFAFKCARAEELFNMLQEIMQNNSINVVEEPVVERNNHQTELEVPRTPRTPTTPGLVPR

[2] = molecular target: T1, SNT-1 PTB domain (residues 11-140 of SEQ ID NO:1) (human); assay: NMR titration, HSQC chemical shift perturbation
[3] = molecular target: T1, SNT-1 PTB domain (residues 11-140 of SEQ ID NO:1) (human); assay: NMR HSQC spectra

Measured: binding

B1: hFGFR1 peptide, 22-residue peptide derived from the juxtamembrane region of hFGFR1 (residues 409-430 of SEQ ID NO:2), HSQMAVHKLAKSIPLRRQVTVS (SEQ ID NO:3) (peptide)
peptide: HSQMAVHKLAKSIPLRRQVTVS
notes: Synthetic peptide, not phosphorylated; also called FGFR peptide; FGF receptor peptide
binds: all assays above
